According to PubChem BioAssay AID288 (DTP/NCI, 2004):
The list does not hold the whole screen: it is rich in T/C values a quarter to a half above the control, in often repeated tests (any T/C) and in doses without a T/C. Further doses and runs are listed elsewhere. T/C: endpoint of the treated group in % of that of the vehicle group. Schedule codes are those of the source, read here as Q, the interval in days (D) or hours (H), X, the number of doses. Some entries give survivors of the animals treated and no T/C: the source holds a T/C of zero for them, seemingly a mark for toxic or unscored doses. Some survivor counts are full or nearly so, which does not show that the dose was tolerated: the source hardly ever lists a survival T/C far under the control, and the zero likely stands for such cases as well. Survivors were counted at the toxicity check, usually on the fifth day, unless a day is given; later deaths do not show. Some entries hold several experiments; the results are listed from low to high. Where survival is the endpoint, the PubChem record calls one and a half times the control and up active, and a quarter to a half above the control has no call in these data; cut-offs in other NCI protocols can differ. Some T/C values carry the count of animals alive at the toxicity check (mostly the fifth day); without a count, all were alive then. Numbered stars: 1 amine (or outer) side, 2 acyl side, 3 side chain; on linkers, the order of the positions; unused ones are H or OH. Bridge positions count the residues as written; N and C are the ends. Square brackets hold non-standard residues; d marks the D form. Peptide text beside a SMILES is read from it. I, II: the chains in the order shown. * marks the point of attachment. ξ: configuration not given here. Quinaldoyl(3-OH,6-OMe) = COc1ccc2nc(C(=O)*)c(O)cc2c1; X2 = CC(=O)OC1CC=NN([*:1])C1C(=O)[*:2]; ξNMeVal(3-OH) = CNC(C(=O)O)C(C)(C)O; X3 = O=C(C1CCCNN1[*:1])[*:2]; Sar = CNCC(=O)O

Test system: BDF1 mice, M5076 sarcoma s.c., survival/tumor T/C
Assay: NCI In Vivo Anticancer Drug Screen. Data for tumor model Sarcoma M5076 (subcutaneous) in B6D2F1 (BDF1) mice
Protocol: The antitumor activity of compounds was measured in mice bearing transplantable tumors. Survival or tumor size were measured and the results are expressed as the measurement made in the treated group (T) divided by the measurement made in the vehicle treated control group (C). The tumor model used in this assay is Sarcoma M5076 (subcutaneous) in B6D2F1 (BDF1) mice

Structure (SMILES): COc1ccc2nc(C(=O)NC3COC(=O)C(C(C)(C)O)N(C)C(=O)CN(C)C(=O)CNC(=O)C4CCCNN4C(=O)C(NC(=O)c4nc5ccc(OC)cc5cc4O)COC(=O)C(C(C)(C)O)N(C)C(=O)CN(C)C(=O)CNC(=O)C4C(OC(C)=O)CC=NN4C3=O)c(O)cc2c1 (stereo not given) (I: {Quinaldoyl(3-OH,6-OMe)}-S[X2]G[Sar][ξNMeVal(3-OH)] / II: {Quinaldoyl(3-OH,6-OMe)}-S[X3]G[Sar][ξNMeVal(3-OH)]; ester I:1-II:C, I:C-II:1; configuration not given here)
- survivor count (T/C endpoint: median survival time, dose: 80.0 micrograms/kg/injection, schedule: Q01DX009 (ip), vehicle: Klucel (hydroxypropylcellulose) (HPC), higher T/C = longer survival): 0 of 10 on day 9
- survivor count (T/C endpoint: median tumor weight (est.), dose: 40.0 micrograms/kg/injection, schedule: Q01DX009 (ip), vehicle: DMSO, higher T/C = larger tumour): 5 of 10 on day 20
- survivor count (T/C endpoint: median tumor weight (est.), dose: 80.0 micrograms/kg/injection, schedule: Q01DX009 (ip), vehicle: DMSO, higher T/C = larger tumour): 0 of 10 on day 20

Structure (SMILES): NCCc1ccc(O)c(O)c1
- survivor count (T/C endpoint: median survival time, dose: 400.0 mg/kg/injection, schedule: Q02DX030 (ip), vehicle: saline, higher T/C = longer survival): 10 of 10 on day 16

Structure (SMILES): C[C@@]12C(=O)OC(=O)[C@]1(C)[C@H]1CC[C@@H]2O1
- survivor count (T/C endpoint: median survival time, dose: 1.6 mg/kg/injection, schedule: Q01DX009 (ip), vehicle: acetone, higher T/C = longer survival): 0 of 10 on day 9
- survivor count (T/C endpoint: median tumor weight (est.), dose: 1.6 mg/kg/injection, schedule: Q01DX009 (ip), vehicle: acetone, higher T/C = larger tumour): 0 of 10 on day 20

Structure (SMILES): CC(=O)Nc1ccc(OC(=O)Nc2ccc(C)c(NC(=O)Oc3ccc(NC(C)=O)cc3)c2)cc1
- survivor count (T/C endpoint: median survival time, dose: 200.0 mg/kg/injection, schedule: Q01DX009 (ip), vehicle: saline with Tween-80, higher T/C = longer survival): 6 of 10 on day 9
- survivor count (T/C endpoint: median tumor weight (est.), dose: 200.0 mg/kg/injection, schedule: Q01DX009 (ip), vehicle: saline with Tween-80, higher T/C = larger tumour): 5 of 10 on day 20

Structure (SMILES): Cc1ccc(S(=O)(=O)O)cc1.Cc1ccc(S(=O)(=O)O)cc1.[NH-]C1CCCCC1[NH-].[Pt+2]
- T/C (T/C endpoint: median survival time, dose: 0.5 mg/kg/injection, schedule: Q02DX032 (ip), vehicle: dextrose, higher T/C = longer survival): 125 % of control
- T/C (T/C endpoint: median survival time, dose: 1.0 mg/kg/injection, schedule: Q02DX032 (ip), vehicle: dextrose, higher T/C = longer survival): 144 % of control
- T/C (T/C endpoint: median survival time, dose: 2.0 mg/kg/injection, schedule: Q02DX032 (ip), vehicle: dextrose, higher T/C = longer survival): 138 % of control

Structure (SMILES): Cc1nc(N)nc(N)c1-c1ccc(Cl)c(Cl)c1
- survivor count (T/C endpoint: median survival time, dose: 2.3 mg/kg/injection, schedule: Q01DX009 (ip), vehicle: normal media, higher T/C = longer survival): 6 of 10 on day 62
- survivor count (T/C endpoint: median survival time, dose: 3.5 mg/kg/injection, schedule: Q01DX009 (ip), vehicle: normal media, higher T/C = longer survival): 0 of 10 on day 62
- survivor count (T/C endpoint: median survival time, dose: 17.0 mg/kg/injection, schedule: Q04DX003 (ip), vehicle: normal media, higher T/C = longer survival): 0 of 10 on day 62
- survivor count (T/C endpoint: median survival time, dose: 25.0 mg/kg/injection, schedule: Q04DX003 (ip), vehicle: normal media, higher T/C = longer survival): 0 of 10 on day 62
- survivor count (T/C endpoint: median survival time, dose: 38.0 mg/kg/injection, schedule: Q01DX001 (ip), vehicle: normal media, higher T/C = longer survival): 5 of 10 on day 62
- survivor count (T/C endpoint: median survival time, dose: 38.0 mg/kg/injection, schedule: Q04DX003 (ip), vehicle: normal media, higher T/C = longer survival): 0 of 10 on day 62
- survivor count (T/C endpoint: median survival time, dose: 56.0 mg/kg/injection, schedule: Q01DX001 (ip), vehicle: normal media, higher T/C = longer survival): 0 of 10 on day 62
- survivor count (T/C endpoint: median survival time, dose: 84.0 mg/kg/injection, schedule: Q01DX001 (ip), vehicle: normal media, higher T/C = longer survival): 0 of 10 on day 62

Structure (SMILES): Cc1ncc([N+](=O)[O-])n1CCO
- T/C (T/C endpoint: median survival time, dose: 1000.0 mg/kg/injection, schedule: Q01DX001 (ip), vehicle: saline, evaluated on day 16, higher T/C = longer survival): 109 % of control [8 of 9 alive]
- T/C (T/C endpoint: median survival time, dose: 1000.0 mg/kg/injection, schedule: Q01DX001 (ip), vehicle: saline, evaluated on day 17, higher T/C = longer survival): 108 % of control
- T/C (T/C endpoint: median survival time, dose: 1000.0 mg/kg/injection, schedule: Q01DX001 (ip), vehicle: saline, evaluated on day 43, higher T/C = longer survival): 102 % of control [7 of 8 alive on day 43]
- T/C (T/C endpoint: median survival time, dose: 1000.0 mg/kg/injection, schedule: Q01DX001 (ip), vehicle: saline, evaluated on day 50, higher T/C = longer survival): 109 % of control [9 of 10 alive on day 50]
- T/C (T/C endpoint: median survival time, dose: 1000.0 mg/kg/injection, schedule: Q01DX001 (ip), vehicle: saline, evaluated on day 75, higher T/C = longer survival): 108 % of control

Structure (SMILES): COc1cc2c[n+](C)c3c4cc5c(cc4ccc3c2cc1OC)OCO5
- survivor count (T/C endpoint: mean tumor weight, dose: 40.0 mg/kg/injection, schedule: Q02DX011 (ip), vehicle: Klucel (hydroxypropylcellulose) (HPC), higher T/C = larger tumour): 0 of 10 on day 22 and 5 of 10 on day 22
- survivor count (T/C endpoint: mean tumor weight, dose: 80.0 mg/kg/injection, schedule: Q02DX011 (ip), vehicle: Klucel (hydroxypropylcellulose) (HPC), higher T/C = larger tumour): 0 of 10 on day 22
- survivor count (T/C endpoint: median tumor weight (est.), dose: 40.0 mg/kg/injection, schedule: Q02DX011 (ip), vehicle: Klucel (hydroxypropylcellulose) (HPC), higher T/C = larger tumour): 0 of 10 on day 22

Structure (SMILES): COc1ccc(Cl)cc1NC(=O)NNC(=O)C(=O)Nc1ccc(F)cc1
- T/C (T/C endpoint: median tumor weight (est.), dose: 100.0 mg/kg/injection, schedule: Q01DX009 (ip), vehicle: saline with Tween-80, evaluated on day 20, higher T/C = larger tumour): 147 % of control

Structure (SMILES): CC1CCC(NC(=O)N(CCCl)N=O)CC1 (stereo not given)
- T/C (T/C endpoint: median survival time, dose: 9.0 mg/kg/injection, schedule: Q01DX003 (ip), vehicle: saline with Tween-80, higher T/C = longer survival): 131 % of control
- survivor count (T/C endpoint: median survival time, dose: 10.0 mg/kg/injection, schedule: Q02DX011 (ip), vehicle: Klucel (hydroxypropylcellulose) (HPC), higher T/C = longer survival): 4 of 9
- T/C (T/C endpoint: median survival time, dose: 14.0 mg/kg/injection, schedule: Q01DX003 (ip), vehicle: saline with Tween-80, higher T/C = longer survival): 133 % of control
- T/C (T/C endpoint: median survival time, dose: 18.0 mg/kg/injection, schedule: Q01DX001 (ip), vehicle: saline with Tween-80, higher T/C = longer survival): 131 % of control
- survivor count (T/C endpoint: median survival time, dose: 20.0 mg/kg/injection, schedule: Q04DX005 (ip), vehicle: other, higher T/C = longer survival): 0 of 10 on day 77
- T/C (T/C endpoint: median survival time, dose: 27.0 mg/kg/injection, schedule: Q01DX001 (ip), vehicle: saline with Tween-80, higher T/C = longer survival): 143 % of control
- T/C (T/C endpoint: median survival time, dose: 30.0 mg/kg/injection, schedule: Q01DX001 (ip), vehicle: saline with Tween-80, higher T/C = longer survival): 129 % of control
- T/C (T/C endpoint: median survival time, dose: 30.0 mg/kg/injection, schedule: Q01DX001 (oral), vehicle: saline with Tween-80, higher T/C = longer survival): 145 % of control
- T/C (T/C endpoint: median survival time, dose: 40.0 mg/kg/injection, schedule: Q01DX001 (ip), vehicle: saline with Tween-80, evaluated on day 65, higher T/C = longer survival): 143 % of control
- T/C (T/C endpoint: median survival time, dose: 40.0 mg/kg/injection, schedule: Q01DX001 (ip), vehicle: saline with Tween-80, evaluated on day 96, higher T/C = longer survival): 155, 180, 227 % of control
- T/C (T/C endpoint: median survival time, dose: 60.0 mg/kg/injection, schedule: Q01DX001 (ip), vehicle: saline with Tween-80, evaluated on day 65, higher T/C = longer survival): 145 % of control
- T/C (T/C endpoint: median survival time, dose: 60.0 mg/kg/injection, schedule: Q01DX001 (ip), vehicle: saline with Tween-80, evaluated on day 96, higher T/C = longer survival): 176 and 226 % of control [9 of 10 alive on day 96]
- survivor count (T/C endpoint: median survival time, dose: 60.0 mg/kg/injection, schedule: Q01DX001 (ip), vehicle: saline with Tween-80, higher T/C = longer survival): 3 of 10 on day 96

Structure (SMILES): COC1=C(C)C(=O)C2=C(C1=O)C(CO)N1C(C#N)C3CC4C(C1C2N1CCOC41)N3C (stereo not given)
- survivor count (T/C endpoint: median survival time, dose: 1.0 mg/kg/injection, schedule: Q01DX009 (ip), vehicle: saline + alcohol, higher T/C = longer survival): 0 of 10 on day 9
- survivor count (T/C endpoint: median tumor weight (est.), dose: 1.0 mg/kg/injection, schedule: Q01DX009 (ip), vehicle: saline + alcohol, higher T/C = larger tumour): 0 of 10 on day 20

Structure (SMILES): O=C1/C(=C/c2cccc([N+](=O)[O-])c2)SC(=S)N1C1CC1
- T/C (T/C endpoint: median tumor weight (est.), dose: 200.0 mg/kg/injection, schedule: Q01DX009 (ip), vehicle: saline with Tween-80, evaluated on day 20, higher T/C = larger tumour): 130 % of control

Structure (SMILES): Nc1n[n+](-c2ccc(Cl)cc2)no1
- survivor count (T/C endpoint: median survival time, dose: 100.0 mg/kg/injection, schedule: Q04DX003 (ip), vehicle: water, higher T/C = longer survival): 0 of 10 on day 63
- survivor count (T/C endpoint: median survival time, dose: 200.0 mg/kg/injection, schedule: Q04DX003 (ip), vehicle: water, higher T/C = longer survival): 0 of 10 on day 63

Structure (SMILES): O=NN(CCCl)C(=O)NC1CCCCC1
- T/C (T/C endpoint: median survival time, dose: 1.5 mg/kg/injection, schedule: Q01DX009 (ip), vehicle: Klucel (hydroxypropylcellulose) (HPC), higher T/C = longer survival): 126 % of control
- survivor count (T/C endpoint: median survival time, dose: 24.0 mg/kg/injection, schedule: Q01DX009 (ip), vehicle: Klucel (hydroxypropylcellulose) (HPC), higher T/C = longer survival): 10 of 10

Structure (SMILES): O=C1c2c(O)ccc(O)c2C(=O)c2c(NCCNCCO)ccc(NCCNCCO)c21
- survivor count (T/C endpoint: median tumor weight (est.), dose: 2.0 mg/kg/injection, schedule: Q02DX011 (ip), vehicle: water, higher T/C = larger tumour): 1 of 10 on day 22
- survivor count (T/C endpoint: median tumor weight (est.), dose: 4.0 mg/kg/injection, schedule: Q02DX011 (ip), vehicle: water, higher T/C = larger tumour): 0 of 10 on day 22
